From paper PMC11487180
Results are given in words; binding and its absence hold for the method and conditions named. Some binding calls cover weakened binding; strength is not graded here.

Amino acid sequences for entries named in this document (tags omitted).
UniProt Q9NQU5: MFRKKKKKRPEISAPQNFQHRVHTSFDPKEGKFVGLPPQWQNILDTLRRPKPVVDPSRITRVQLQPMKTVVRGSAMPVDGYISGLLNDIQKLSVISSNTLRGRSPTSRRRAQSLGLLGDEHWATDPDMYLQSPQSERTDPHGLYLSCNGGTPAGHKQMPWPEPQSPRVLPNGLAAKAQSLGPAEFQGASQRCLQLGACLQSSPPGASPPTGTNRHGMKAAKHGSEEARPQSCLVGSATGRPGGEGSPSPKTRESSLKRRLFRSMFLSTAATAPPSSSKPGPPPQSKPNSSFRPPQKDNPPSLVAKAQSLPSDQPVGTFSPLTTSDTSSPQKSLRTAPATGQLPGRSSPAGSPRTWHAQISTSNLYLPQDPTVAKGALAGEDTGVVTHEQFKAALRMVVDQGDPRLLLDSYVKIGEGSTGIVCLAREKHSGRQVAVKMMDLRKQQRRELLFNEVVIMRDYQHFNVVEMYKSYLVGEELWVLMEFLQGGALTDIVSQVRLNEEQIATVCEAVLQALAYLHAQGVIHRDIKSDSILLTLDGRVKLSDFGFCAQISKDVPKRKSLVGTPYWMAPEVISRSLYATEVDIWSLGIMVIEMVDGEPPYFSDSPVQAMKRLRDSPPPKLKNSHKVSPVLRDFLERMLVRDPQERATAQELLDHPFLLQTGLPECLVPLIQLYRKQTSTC

How the values were obtained:
Assay in all cases: peptide or protein array; HuProt Human Proteome Microarray v4.0 (GST proteins spotted) incubated with recombinant PAK6 in 2% BSA, PBS, 0.05% Tween20 for 2 h at RT; detected with anti-PAK6 and fluorophore conjugated secondary antibody; hits by Z score > 2.5; both purified
ENTR1 (human) = target: T1, ENTR1 (human) (UniProt Q96C92)
T1 sequence: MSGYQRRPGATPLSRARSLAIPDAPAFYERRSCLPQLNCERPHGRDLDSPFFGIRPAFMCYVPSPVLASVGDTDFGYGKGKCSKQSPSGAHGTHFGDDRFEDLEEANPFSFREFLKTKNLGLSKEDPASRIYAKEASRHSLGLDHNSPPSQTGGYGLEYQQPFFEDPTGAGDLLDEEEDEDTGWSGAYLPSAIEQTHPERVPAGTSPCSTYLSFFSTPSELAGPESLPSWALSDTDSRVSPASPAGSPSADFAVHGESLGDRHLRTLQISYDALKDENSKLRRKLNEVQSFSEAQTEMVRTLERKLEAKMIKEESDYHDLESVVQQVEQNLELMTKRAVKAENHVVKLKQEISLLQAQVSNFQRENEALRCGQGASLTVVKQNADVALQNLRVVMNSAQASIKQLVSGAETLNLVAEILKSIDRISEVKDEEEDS

DRC3 (human) = target: T2, DRC3 (human) (UniProt Q9H069)
T2 sequence: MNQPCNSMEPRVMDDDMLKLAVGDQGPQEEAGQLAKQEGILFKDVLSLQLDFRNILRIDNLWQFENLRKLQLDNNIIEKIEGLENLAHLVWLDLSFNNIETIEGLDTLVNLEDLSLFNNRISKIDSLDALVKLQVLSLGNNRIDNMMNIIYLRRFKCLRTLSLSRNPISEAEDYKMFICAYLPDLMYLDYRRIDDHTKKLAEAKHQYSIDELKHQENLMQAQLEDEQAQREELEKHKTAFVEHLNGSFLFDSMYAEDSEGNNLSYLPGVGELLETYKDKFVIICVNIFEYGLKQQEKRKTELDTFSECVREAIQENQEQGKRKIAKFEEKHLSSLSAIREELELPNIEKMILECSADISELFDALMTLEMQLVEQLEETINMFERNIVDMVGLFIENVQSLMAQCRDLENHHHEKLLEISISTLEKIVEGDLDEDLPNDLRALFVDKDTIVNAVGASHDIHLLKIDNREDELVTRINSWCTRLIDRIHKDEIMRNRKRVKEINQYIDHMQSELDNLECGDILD

CCDC40 (human) = target: T3, CCDC40 (human) (UniProt Q4G0X9)
T3 sequence: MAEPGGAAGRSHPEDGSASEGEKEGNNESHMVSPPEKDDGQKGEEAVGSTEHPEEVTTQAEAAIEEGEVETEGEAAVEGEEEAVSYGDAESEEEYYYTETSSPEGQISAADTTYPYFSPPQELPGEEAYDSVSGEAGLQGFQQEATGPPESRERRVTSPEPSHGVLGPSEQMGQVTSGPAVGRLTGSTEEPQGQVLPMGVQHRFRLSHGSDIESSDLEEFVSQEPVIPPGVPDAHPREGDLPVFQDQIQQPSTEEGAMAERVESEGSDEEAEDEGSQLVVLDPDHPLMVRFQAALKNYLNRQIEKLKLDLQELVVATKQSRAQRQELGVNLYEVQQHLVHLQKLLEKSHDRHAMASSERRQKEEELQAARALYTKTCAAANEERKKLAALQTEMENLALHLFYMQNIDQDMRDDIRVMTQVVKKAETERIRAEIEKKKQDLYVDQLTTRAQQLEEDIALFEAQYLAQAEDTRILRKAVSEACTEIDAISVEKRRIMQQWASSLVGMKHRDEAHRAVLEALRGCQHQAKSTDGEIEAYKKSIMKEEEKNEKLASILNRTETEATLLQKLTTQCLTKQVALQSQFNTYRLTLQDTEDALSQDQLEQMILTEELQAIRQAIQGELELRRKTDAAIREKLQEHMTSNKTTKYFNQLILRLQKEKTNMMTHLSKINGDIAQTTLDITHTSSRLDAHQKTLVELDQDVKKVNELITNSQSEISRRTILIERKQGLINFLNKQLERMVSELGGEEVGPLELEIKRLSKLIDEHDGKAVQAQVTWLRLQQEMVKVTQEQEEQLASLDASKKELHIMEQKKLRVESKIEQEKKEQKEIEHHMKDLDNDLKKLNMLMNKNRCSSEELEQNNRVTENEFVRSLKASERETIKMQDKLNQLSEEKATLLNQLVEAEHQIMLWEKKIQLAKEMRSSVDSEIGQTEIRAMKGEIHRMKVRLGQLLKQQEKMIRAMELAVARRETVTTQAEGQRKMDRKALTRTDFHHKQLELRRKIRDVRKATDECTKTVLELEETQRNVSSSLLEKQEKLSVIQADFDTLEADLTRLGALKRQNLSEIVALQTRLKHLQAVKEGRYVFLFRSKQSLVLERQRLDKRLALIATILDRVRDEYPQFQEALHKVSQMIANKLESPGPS

SUFU (human) = target: T4, SUFU (human) (UniProt Q9UMX1)
T4 sequence: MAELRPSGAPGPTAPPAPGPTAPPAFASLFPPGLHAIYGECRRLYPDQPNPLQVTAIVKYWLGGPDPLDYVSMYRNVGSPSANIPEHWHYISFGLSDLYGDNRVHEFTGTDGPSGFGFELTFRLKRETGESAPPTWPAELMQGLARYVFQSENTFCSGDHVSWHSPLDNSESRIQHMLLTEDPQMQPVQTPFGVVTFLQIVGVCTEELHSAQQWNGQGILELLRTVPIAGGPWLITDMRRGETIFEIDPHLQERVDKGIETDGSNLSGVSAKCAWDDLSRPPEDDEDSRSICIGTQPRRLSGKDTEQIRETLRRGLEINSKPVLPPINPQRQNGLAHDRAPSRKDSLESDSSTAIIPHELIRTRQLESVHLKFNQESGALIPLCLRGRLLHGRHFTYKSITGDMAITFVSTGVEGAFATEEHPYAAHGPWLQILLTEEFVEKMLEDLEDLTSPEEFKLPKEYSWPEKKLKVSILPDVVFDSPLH

CLUAP1 (human) = target: T5, CLUAP1 (human) (UniProt Q96AJ1)
T5 sequence: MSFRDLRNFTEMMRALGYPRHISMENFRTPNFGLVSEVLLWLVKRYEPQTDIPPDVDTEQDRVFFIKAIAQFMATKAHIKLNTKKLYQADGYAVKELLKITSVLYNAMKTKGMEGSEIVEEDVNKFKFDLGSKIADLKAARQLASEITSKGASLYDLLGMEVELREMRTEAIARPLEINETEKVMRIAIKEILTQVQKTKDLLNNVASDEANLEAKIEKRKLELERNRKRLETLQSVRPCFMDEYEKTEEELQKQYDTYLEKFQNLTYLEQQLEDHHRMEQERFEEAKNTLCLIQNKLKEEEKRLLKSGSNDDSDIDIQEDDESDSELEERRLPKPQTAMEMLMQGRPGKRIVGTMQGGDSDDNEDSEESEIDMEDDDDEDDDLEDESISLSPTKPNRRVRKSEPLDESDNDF

Measured: binding

Recombinant full-length human PAK6 (ThermoFisher, #PR5307A) (from UniProt Q9NQU5 1-681) (enzyme)
binds: all assays above
